{"sequences": {"note": "By UniProt entry, the sequences of proteins in these tests, tags left out. Residues count along the entry.", "UniProt Q9DBY1": "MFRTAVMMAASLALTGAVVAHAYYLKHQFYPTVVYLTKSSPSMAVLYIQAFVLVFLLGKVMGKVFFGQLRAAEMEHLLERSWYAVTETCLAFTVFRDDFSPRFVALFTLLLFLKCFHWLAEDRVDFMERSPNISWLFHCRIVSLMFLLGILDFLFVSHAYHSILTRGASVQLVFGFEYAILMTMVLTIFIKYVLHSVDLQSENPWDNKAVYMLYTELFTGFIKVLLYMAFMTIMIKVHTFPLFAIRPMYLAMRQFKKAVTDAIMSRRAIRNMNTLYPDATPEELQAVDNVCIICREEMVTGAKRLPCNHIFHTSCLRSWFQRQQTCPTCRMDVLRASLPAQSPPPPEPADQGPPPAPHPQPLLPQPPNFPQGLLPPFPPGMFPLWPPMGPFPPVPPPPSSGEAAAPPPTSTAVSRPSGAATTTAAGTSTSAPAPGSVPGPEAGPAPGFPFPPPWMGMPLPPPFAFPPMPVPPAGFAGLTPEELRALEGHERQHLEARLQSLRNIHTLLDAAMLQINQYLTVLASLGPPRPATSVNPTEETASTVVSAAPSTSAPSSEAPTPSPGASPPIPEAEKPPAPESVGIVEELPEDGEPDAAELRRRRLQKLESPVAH", "UniProt Q9Z2G6, residues 22-790": "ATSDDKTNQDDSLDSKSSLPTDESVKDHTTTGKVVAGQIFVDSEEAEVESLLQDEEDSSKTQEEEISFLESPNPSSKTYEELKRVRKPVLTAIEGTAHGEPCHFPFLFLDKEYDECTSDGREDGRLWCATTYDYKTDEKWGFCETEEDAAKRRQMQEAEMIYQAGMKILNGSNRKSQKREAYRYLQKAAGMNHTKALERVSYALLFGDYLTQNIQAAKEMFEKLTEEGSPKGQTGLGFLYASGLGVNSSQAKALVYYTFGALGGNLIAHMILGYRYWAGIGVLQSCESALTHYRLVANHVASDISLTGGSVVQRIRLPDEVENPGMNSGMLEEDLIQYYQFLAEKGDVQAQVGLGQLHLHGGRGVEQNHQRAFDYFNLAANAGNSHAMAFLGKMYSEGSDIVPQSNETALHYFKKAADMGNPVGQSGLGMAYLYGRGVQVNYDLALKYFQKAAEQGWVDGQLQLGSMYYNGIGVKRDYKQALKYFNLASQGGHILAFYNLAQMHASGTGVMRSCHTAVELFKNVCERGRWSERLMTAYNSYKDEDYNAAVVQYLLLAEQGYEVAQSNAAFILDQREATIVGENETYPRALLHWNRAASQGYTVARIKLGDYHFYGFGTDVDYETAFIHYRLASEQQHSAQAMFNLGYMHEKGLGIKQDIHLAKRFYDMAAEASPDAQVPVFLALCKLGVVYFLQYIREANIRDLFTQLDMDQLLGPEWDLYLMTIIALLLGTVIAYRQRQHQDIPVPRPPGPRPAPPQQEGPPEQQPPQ"}, "source": "paper PMC7504720", "molecules": {"B1": {"name": "Derlin-2 (protein, UniProt Q8BNI4 1-239)", "chain": "MAYQSLRLEYLQIPPVSRAYTTACVLTTAAVQLELITPFQLYFNPELIFKHFQIWRLITNFLFFGPVGFNFLFNMIFLYRYCRMLEEGSFRGRTADFVFMFLFGGFLMTLFGLFVSLVFLGQAFTIMLVYVWSRRNPYVRMNFFGLLNFQAPFLPWVLMGFSLLLGNSIIVDLLGIAVGHIYFFLEDIFPNQPGGIRILKTPSILRTIFDTPDEDPNYNPLPEERPGGFAWGEGQRLGG"}, "B2": {"name": "VIMP (protein, UniProt Q9BCZ4 1-190)", "chain": "MDRDEEPLSARPALETESLRFLHVTVGSLLASYGWYILFSCILLYIVIQRLSLRLRALRQRQLDQAETVLEPDVVVKRQEALAAARLRMQEDLNAQVEKHKEKLRQLEEEKRRQKIEMWDSMQEGRSYKRNSGRPQEEDGPGPSTSSVIPKGKSDKKPLRGGGYNPLTGEGGGTCSWRPGRRGPSSGGUN"}, "B3": {"name": "Derlin-3 (protein, UniProt Q9D8K3 1-228)", "chain": "MAGQRLAAGFLQVPAVTRAYTAACVLTTAAVQLELLSPFQLYFNPHLVFRKFQVWRLITTFLFFGPLGFGFFFNMLFVFRYCRMLEEGSFRGRKADFVFMFLFGGVLMTLLGFLGSLFFLGQALMAMLVYVWSRRSPHVRVNFFGLLNFQAPFLPWALMGFSLLLGNSVVTDLLGILVGHIYYFLEDVFPNQPGGKRLLLTPSVLKLLLDDPQEDPDYLPLPEEQPEL"}, "B4": {"name": "FLAG-tagged Herp and HA-tagged Herp (protein, UniProt Q9JJK5 1-391)", "chain": "MEPEPQPEPVTLLVKSPNQRHRDLELSGDRSWSVSRLKAHLSRVYPERPRPEDQRLIYSGKLLLDHQCLQDLLPKQEKRHVLHLVCNVKNPSKMPETSTKGAESTEQPDNSNQTQHPGDSSSDGLRQREVLRNLSPSGWENISRPEAVQQTFQGLGPGFSGYTTYGWLQLSWFQQIYARQYYMQYLAATAASGTFVPTPSAQEIPVVSTPAPAPIHNQFPAENQPANQNAAAQAVVNPGANQNLRMNAQGGPLVEEDDEINRDWLDWTYSAATFSVFLSILYFYSSLSRFLMVMGATVVMYLHHVGWFPFRQRPVQNFPDDGGPRDAANQDPNNNLQGGMDPEMEDPNRLPPDREVLDPEHTSPSFMSTAWLVFKTFFASLLPEGPPALAN"}, "B5": {"name": "Herp (protein, UniProt Q9JJK5 1-391)", "chain": "B4 chain"}, "B6": {"name": "Derlin-1 (protein, UniProt Q99J56 1-251)", "chain": "MSDIGDWFRSIPAITRYWFAATVAVPLIGKLGIISPAYFFLWPEAFLYRFQIWRPFTATFYFPVGPGTGFLYLVNLYFLYQYSTRLEAGAFDGRPADYLFMLLFNWICIVITGLAMDMQLLMIPLIMSVLYVWAQLNRDLIVSFWFGTRFKACYLPWVILGFNYIIGGSVINELIGNLVGHLYFFLMFRYPMDLGGRNFLSTPQFLYRWLPSRRGGVSGFGVPPASMRRAADQNGGGGRHNWGQGFRLGDQ"}}, "key": {"[1]": {"target": "T1, Herp (mouse (endogenous in liver and pancreas)) (UniProt Q9JJK5)", "T1 sequence": "B4 chain", "test": "co-IP; digitonin-solubilized liver microsomes of WT, 3KO and HKO mice injected with PBS (control) or tunicamycin 24 h before; antibodies against Herp, Derlin-1, Derlin-2 or HRD1, Protein A-Sepharose, 4 °C; lysis buffer 50 mM Tris-HCl, 150 mM NaCl, 1% digitonin, pH 7.5; Western blot"}, "[2]": {"target": "T1, Herp (mouse (endogenous in liver and pancreas))", "test": "co-IP; sequential co-IP from digitonin-solubilized liver microsomes of WT mice (PBS or tunicamycin): first anti-Herp or anti-Derlin-1, eluted with 200 µg/mL immunogen peptide, second anti-Derlin-2; Western blot"}, "[3]": {"target": "T2, Derlin-2 (mouse (endogenous in liver and pancreas)) (UniProt Q8BNI4)", "T2 sequence": "B1 chain", "test": "co-IP; sequential co-IP from digitonin-solubilized liver microsomes of WT mice (PBS or tunicamycin): first anti-Herp or anti-Derlin-1, eluted with 200 µg/mL immunogen peptide, second anti-Derlin-2; Western blot"}, "[4]": {"target": "T1, Herp (mouse (endogenous in liver and pancreas))", "test": "co-IP; heavy fractions (18-22) of a 0.15-1 M sucrose density gradient of liver microsomes of tunicamycin-treated WT mice; anti-Herp or anti-Derlin-1 antibodies; Western blot"}, "[5]": {"target": "T2, Derlin-2 (mouse (endogenous in liver and pancreas))", "test": "co-IP; digitonin-solubilized liver microsomes of WT, 3KO and HKO mice injected with PBS (control) or tunicamycin 24 h before; antibodies against Herp, Derlin-1, Derlin-2 or HRD1, Protein A-Sepharose, 4 °C; lysis buffer 50 mM Tris-HCl, 150 mM NaCl, 1% digitonin, pH 7.5; Western blot"}, "[6]": {"target": "T3, Derlin-1 (mouse (endogenous in liver and pancreas)) (UniProt Q99J56)", "T3 sequence": "B6 chain", "test": "co-IP; sequential co-IP from digitonin-solubilized liver microsomes of WT mice (PBS or tunicamycin): first anti-Herp or anti-Derlin-1, eluted with 200 µg/mL immunogen peptide, second anti-Derlin-2; Western blot"}, "[7]": {"target": "T3, Derlin-1 (mouse (endogenous in liver and pancreas))", "test": "co-IP; digitonin-solubilized pancreas microsomes of WT mice, normal conditions; anti-Herp or anti-Derlin-1 antibodies; Western blot"}, "[8]": {"target": "HRD1 (mouse (endogenous in liver)) (UniProt Q9DBY1)", "test": "co-IP; digitonin-solubilized liver microsomes of WT, 3KO and HKO mice injected with PBS (control) or tunicamycin 24 h before; antibodies against Herp, Derlin-1, Derlin-2 or HRD1, Protein A-Sepharose, 4 °C; lysis buffer 50 mM Tris-HCl, 150 mM NaCl, 1% digitonin, pH 7.5; Western blot"}, "[9]": {"target": "T1, Herp (mouse (endogenous in liver and pancreas))", "test": "co-IP; digitonin-solubilized liver microsomes of WT, 3KO and HKO mice injected with PBS (control) or tunicamycin 24 h before; antibodies against Herp, Derlin-1, Derlin-2 or HRD1, Protein A-Sepharose, 4 °C; lysis buffer 50 mM Tris-HCl, 150 mM NaCl, 1% digitonin, pH 7.5; Western blot", "remark": "listed apart in the source"}, "[10]": {"target": "T3, Derlin-1 (mouse (endogenous in liver and pancreas))", "test": "co-IP; digitonin-solubilized liver microsomes of WT, 3KO and HKO mice injected with PBS (control) or tunicamycin 24 h before; antibodies against Herp, Derlin-1, Derlin-2 or HRD1, Protein A-Sepharose, 4 °C; lysis buffer 50 mM Tris-HCl, 150 mM NaCl, 1% digitonin, pH 7.5; Western blot"}, "[11]": {"target": "T1, Herp (mouse (endogenous in liver and pancreas))", "test": "co-IP; light fractions (8-12) of a 0.15-1 M sucrose density gradient of liver microsomes of tunicamycin-treated WT mice; anti-Herp or anti-Derlin-1 antibodies; Western blot"}, "[12]": {"target": "T3, Derlin-1 (mouse (endogenous in liver and pancreas))", "test": "co-IP; light fractions (8-12) of a 0.15-1 M sucrose density gradient of liver microsomes of tunicamycin-treated WT mice; anti-Herp or anti-Derlin-1 antibodies; Western blot"}, "[13]": {"target": "T3, Derlin-1 (mouse (endogenous in liver and pancreas))", "test": "co-IP; heavy fractions (18-22) of a 0.15-1 M sucrose density gradient of liver microsomes of tunicamycin-treated WT mice; anti-Herp or anti-Derlin-1 antibodies; Western blot"}, "[14]": {"target": "T1, Herp (mouse (endogenous in liver and pancreas))", "test": "co-IP; digitonin-solubilized pancreas microsomes of Derlin-3-deficient (3KO) mice, normal conditions; anti-Herp or anti-Derlin-1 antibodies; Western blot"}, "[15]": {"target": "T3, Derlin-1 (mouse (endogenous in liver and pancreas))", "test": "co-IP; digitonin-solubilized pancreas microsomes of Derlin-3-deficient (3KO) mice, normal conditions; anti-Herp or anti-Derlin-1 antibodies; Western blot"}, "[16]": {"target": "T2, Derlin-2 (mouse (endogenous in liver and pancreas))", "test": "co-IP; digitonin-solubilized liver microsomes of WT, 3KO and HKO mice injected with PBS (control) or tunicamycin 24 h before; antibodies against Herp, Derlin-1, Derlin-2 or HRD1, Protein A-Sepharose, 4 °C; lysis buffer 50 mM Tris-HCl, 150 mM NaCl, 1% digitonin, pH 7.5; Western blot", "remark": "listed apart in the source"}, "[17]": {"target": "T1, Herp (mouse (endogenous in liver and pancreas))", "test": "co-IP; digitonin-solubilized pancreas microsomes of WT mice, normal conditions; anti-Herp or anti-Derlin-1 antibodies; Western blot"}, "[18]": {"target": "FLAG-tagged Herp and HA-tagged Herp (UniProt Q9JJK5)", "test": "co-IP; FLAG-tagged Herp and HA-tagged Herp co-expressed, reciprocal co-IP; data not shown"}}, "note": "Results are given in words; binding and its absence hold for the method and conditions named. In cells and extracts the contact can be indirect. Some results given as binding are weak or reduced against the parent protein; the word gives no strength. For some of these results: Where a sequence is shown, tags or fusion partners need not be part of it."}
{"molecule": "SEL1L (from UniProt Q9Z2G6 22-790)", "values": [{"measurement": "binding", "setting": "[1]", "result": "binds"}]}
{"molecule": "HRD1 (from UniProt Q9DBY1 1-612)", "values": [{"measurement": "binding", "setting": "[2]", "result": "binds"}, {"measurement": "binding", "setting": "[3]", "result": "binds"}, {"measurement": "binding", "setting": "[4]", "result": "binds"}, {"measurement": "binding", "setting": "[1]", "result": "binds"}]}
{"molecule": "p97 (from UniProt Q01853 1-806)", "values": [{"measurement": "binding", "setting": "[3]", "result": "binds"}, {"measurement": "binding", "setting": "[5]", "result": "binds"}]}
{"molecule": "B1", "values": [{"measurement": "binding", "setting": "[2]", "result": "binds"}, {"measurement": "binding", "setting": "[6]", "result": "binds"}, {"measurement": "binding", "setting": "[7]", "result": "binds"}, {"measurement": "binding", "setting": "[8]", "result": "binds"}, {"measurement": "binding", "setting": "[9]", "result": "binds"}, {"measurement": "binding", "setting": "[10]", "result": "binds"}, {"measurement": "binding", "setting": "[11]", "result": "binds weakly"}, {"measurement": "binding", "setting": "[12]", "result": "binds"}, {"measurement": "binding", "setting": "[4]", "result": "binds weakly"}, {"measurement": "binding", "setting": "[13]", "result": "binds"}, {"measurement": "binding", "setting": "[14]", "result": "binds"}, {"measurement": "binding", "setting": "[15]", "result": "binds"}]}
{"molecule": "B2", "values": [{"measurement": "binding", "setting": "[3]", "result": "binds"}, {"measurement": "binding", "setting": "[16]", "result": "binds"}]}
{"molecule": "B3", "values": [{"measurement": "binding", "setting": "[17]", "result": "binds"}, {"measurement": "binding", "setting": "[9]", "result": "binds"}, {"measurement": "binding", "setting": "[11]", "result": "binds"}, {"measurement": "binding", "setting": "[4]", "result": "binds"}]}
{"molecule": "B4", "values": [{"measurement": "binding", "setting": "[18]", "result": "binds"}]}
{"molecule": "B5", "values": [{"measurement": "binding", "setting": "[8]", "result": "binds"}]}
{"molecule": "B6", "values": [{"measurement": "binding", "setting": "[16]", "result": "binds"}]}
